These are yes or no findings as the source states them, for the method shown. Tags and fused reporters may be left off the sequences shown.
Target: Methylococcus capsulatus CYP51-ferredoxin fusion protein (sterol 14α-demethylase fused to a ferredoxin domain) (Methylococcus capsulatus) (UniProt Q603T8)
Experiment: SEC; M. capsulatus CYP51-fx in solution; conditions not given; both purified

B1: Methylococcus capsulatus CYP51-ferredoxin fusion protein (sterol 14α-demethylase fused to a ferredoxin domain) (enzyme, UniProt Q603T8 1-551)
chain: MSHPPSNTPPVKPGGLPLLGHILEFGKNPHAFLMALRHEFGDVAEFRMFHQRMVLLTGSQASEAFYRAPDEVLDQGPAYRIMTPIFGRGVVFDARIERKNQQLQMLMPALRDKPMRTYSEIIVAEVEAMLRDWKDAGTIDLLELTKELTIYTSSHCLLGAEFRHELNTEFAGIYRDLEMGIQPIAYVFPNLPLPVFKRRDQARVRLQELVTQIMERRARSQERSTNVFQMLIDASYDDGSKLTPHEITGMLIATIFAGHHTSSGTTAWVLIELLRRPEYLRRVRAEIDALFETHGRVTFESLRQMPQLENVIKEVLRLHPPLILLMRKVMKDFEVQGMRIEAGKFVCAAPSVTHRIPELFPNPELFDPDRYTPERAEDKDLYGWQAFGGGRHKCSGNAFAMFQIKAIVCVLLRNYEFELAAAPESYRDDYRKMVVEPASPCLIRYRRRDAPAAVDAKASAGEAPAETLRGAFRVTVDRDLCKGHGNCMAEAPEIFRVDEDGRLTLLSETPDPVLVGAALAAERFCPARAIKILPQRDPATRDRSLSPSGED
B1 was tested, and the binding was “no binding”.

Source: paper PMC9519919
